Laboratory results: PubChem BioAssay AID1259254 (NCATS, 2017)
Here is a random part of about 59,000 reagents tested. About 1,550 of them (2.6%) count as active. 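G2 share is only a proxy for re-replication; each gene was hit by three separate siRNAs, and active genes were retested.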 Raw values are not corrected between plates. Reagents against one gene are numbered here. Not given: the amount of reagent.

Test: 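Finding genes that stop cells copying their DNA twice in one cycle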 (primary screen)
System: human HCT116 colorectal cancer cells
Knock-down reagent: single siRNA against human genes
Duration: 3 days
Measurement: 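Nuclei stained with Hoechst and imaged; cell-cycle phase assigned by DNA content; G2 share scaled per plate, non-targeting siRNA 0%, GMNN siRNA 100%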
Direction: G2 robust z-score and G2 cells, % of GMNN control: higher = more G2 cells, more excess DNA replication; raw share of cells in G2: higher = larger share of cells with G2 DNA content
Active means: 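Active siRNAs have a G2 robust z of 5 or more median absolute deviations over the median, which in these data means about 38% or higher of GMNN control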

Gene	reagent no.	G2 robust z-score	G2 cells, % of GMNN control	raw share of cells in G2 (%)	Outcome
GSTA4 (glutathione S-transferase alpha 4)	1	-0.803	-2.68	4.66	inactive
GSTA4 (glutathione S-transferase alpha 4)	2	1.12	10.8	8.18	inactive
GSTA4 (glutathione S-transferase alpha 4)	3	-0.174	1.75	5.68	inactive
CENPM (centromere protein M)	1	-0.42	0.0126	4.59	inactive
CENPM (centromere protein M)	2	-0.252	1.19	5.14	inactive
CENPM (centromere protein M)	3	-1.35	-6.51	0.979	inactive
PALMD (palmdelphin)	1	0.348	5.42	5.54	inactive
PALMD (palmdelphin)	2	3.44	27.2	15.7	inactive
PALMD (palmdelphin)	3	-0.000749	2.96	4.17	inactive
MMAB (metabolism of cobalamin associated B)	1	-0.194	1.61	6.6	inactive
MMAB (metabolism of cobalamin associated B)	2	1.62	14.4	10.6	inactive
MMAB (metabolism of cobalamin associated B)	3	-0.867	-3.13	3.14	inactive
UBAC1 (UBA domain containing 1)	1	-0.828	-2.86	4.04	inactive
UBAC1 (UBA domain containing 1)	2	0.663	7.63	7.13	inactive
UBAC1 (UBA domain containing 1)	3	-0.373	0.346	3.53	inactive
KLHL30 (kelch like family member 30)	1	-0.196	1.59	4.32	inactive
KLHL30 (kelch like family member 30)	2	-1.05	-4.41	1.49	inactive
KLHL30 (kelch like family member 30)	3	0.422	5.94	7.18	inactive
IGF2BP2-AS1 (IGF2BP2 antisense RNA 1)	1	4.68	35.9	17.3	inactive
IGF2BP2-AS1 (IGF2BP2 antisense RNA 1)	2	-0.163	1.82	3.9	inactive
IGF2BP2-AS1 (IGF2BP2 antisense RNA 1)	3	-0.644	-1.56	2.55	inactive
ANTKMT (adenine nucleotide translocase lysine methyltransferase)	1	0.451	6.14	7.36	inactive
ANTKMT (adenine nucleotide translocase lysine methyltransferase)	2	-0.128	2.07	3.24	inactive
ANTKMT (adenine nucleotide translocase lysine methyltransferase)	3	0.0188	3.1	5.93	inactive
FABP6 (fatty acid binding protein 6)	1	-0.805	-2.69	4.24	inactive
FABP6 (fatty acid binding protein 6)	2	-0.78	-2.52	2.76	inactive
FABP6 (fatty acid binding protein 6)	3	1.16	11.1	9.28	inactive

Laid out differently: entries from further up
GSTA4 (glutathione S-transferase alpha 4) #1
- G2 robust z-score: -0.803
- G2 cells, % of GMNN control: -2.68
- raw share of cells in G2 (%): 4.66
- Outcome: inactive

GSTA4 (glutathione S-transferase alpha 4) #2
- G2 robust z-score: 1.12
- G2 cells, % of GMNN control: 10.8
- raw share of cells in G2 (%): 8.18
- Outcome: inactive

GSTA4 (glutathione S-transferase alpha 4) #3
- G2 robust z-score: -0.174
- G2 cells, % of GMNN control: 1.75
- raw share of cells in G2 (%): 5.68
- Outcome: inactive

CENPM (centromere protein M) #1
- G2 robust z-score: -0.42
- G2 cells, % of GMNN control: 0.0126
- raw share of cells in G2 (%): 4.59
- Outcome: inactive

CENPM (centromere protein M) #2
- G2 robust z-score: -0.252
- G2 cells, % of GMNN control: 1.19
- raw share of cells in G2 (%): 5.14
- Outcome: inactive

Next records:
Gene	reagent no.	G2 robust z-score	G2 cells, % of GMNN control	raw share of cells in G2 (%)	Outcome
CCDC187 (coiled-coil domain containing 187)	1	4.12	32	15.4	inactive
CCDC187 (coiled-coil domain containing 187)	2	-0.473	-0.363	3.37	inactive
CCDC187 (coiled-coil domain containing 187)	3	-1.15	-5.15	2.66	inactive
MBLAC2 (metallo-beta-lactamase domain containing 2)	1	1.15	11.1	7.56	inactive
MBLAC2 (metallo-beta-lactamase domain containing 2)	2	1.12	10.8	6.59	inactive
MBLAC2 (metallo-beta-lactamase domain containing 2)	3	1.69	14.9	7.47	inactive
DCLK1 (doublecortin like kinase 1)	1	-1.13	-4.95	4.05	inactive
DCLK1 (doublecortin like kinase 1)	2	-0.659	-1.67	4.58	inactive
DCLK1 (doublecortin like kinase 1)	3	-0.278	1.01	4.01	inactive
FGF22 (fibroblast growth factor 22)	1	-1.09	-4.72	2.05	inactive
FGF22 (fibroblast growth factor 22)	2	1.06	10.5	8.5	inactive
FGF22 (fibroblast growth factor 22)	3	-0.49	-0.479	3.1	inactive
SLC5A3	1	0.658	7.6	6.47	inactive
SLC5A3	2	-0.362	0.42	5.82	inactive
SLC5A3	3	-0.0248	2.79	5.5	inactive
DHODH (dihydroorotate dehydrogenase (quinone))	1	-0.399	0.161	4.15	inactive
DHODH (dihydroorotate dehydrogenase (quinone))	2	2.67	21.8	12.9	inactive
DHODH (dihydroorotate dehydrogenase (quinone))	3	-0.282	0.986	5.31	inactive
FAM157A (family with sequence similarity 157 member A)	1	-0.688	-1.87	2.83	inactive
FAM157A (family with sequence similarity 157 member A)	2	-0.771	-2.46	2.01	inactive
FAM157A (family with sequence similarity 157 member A)	3	-0.901	-3.37	2.32	inactive
